Percent effect of library compounds

Amino acid sequences for entries named in this document (tags omitted).
UniProt I6X8D2, whole entry: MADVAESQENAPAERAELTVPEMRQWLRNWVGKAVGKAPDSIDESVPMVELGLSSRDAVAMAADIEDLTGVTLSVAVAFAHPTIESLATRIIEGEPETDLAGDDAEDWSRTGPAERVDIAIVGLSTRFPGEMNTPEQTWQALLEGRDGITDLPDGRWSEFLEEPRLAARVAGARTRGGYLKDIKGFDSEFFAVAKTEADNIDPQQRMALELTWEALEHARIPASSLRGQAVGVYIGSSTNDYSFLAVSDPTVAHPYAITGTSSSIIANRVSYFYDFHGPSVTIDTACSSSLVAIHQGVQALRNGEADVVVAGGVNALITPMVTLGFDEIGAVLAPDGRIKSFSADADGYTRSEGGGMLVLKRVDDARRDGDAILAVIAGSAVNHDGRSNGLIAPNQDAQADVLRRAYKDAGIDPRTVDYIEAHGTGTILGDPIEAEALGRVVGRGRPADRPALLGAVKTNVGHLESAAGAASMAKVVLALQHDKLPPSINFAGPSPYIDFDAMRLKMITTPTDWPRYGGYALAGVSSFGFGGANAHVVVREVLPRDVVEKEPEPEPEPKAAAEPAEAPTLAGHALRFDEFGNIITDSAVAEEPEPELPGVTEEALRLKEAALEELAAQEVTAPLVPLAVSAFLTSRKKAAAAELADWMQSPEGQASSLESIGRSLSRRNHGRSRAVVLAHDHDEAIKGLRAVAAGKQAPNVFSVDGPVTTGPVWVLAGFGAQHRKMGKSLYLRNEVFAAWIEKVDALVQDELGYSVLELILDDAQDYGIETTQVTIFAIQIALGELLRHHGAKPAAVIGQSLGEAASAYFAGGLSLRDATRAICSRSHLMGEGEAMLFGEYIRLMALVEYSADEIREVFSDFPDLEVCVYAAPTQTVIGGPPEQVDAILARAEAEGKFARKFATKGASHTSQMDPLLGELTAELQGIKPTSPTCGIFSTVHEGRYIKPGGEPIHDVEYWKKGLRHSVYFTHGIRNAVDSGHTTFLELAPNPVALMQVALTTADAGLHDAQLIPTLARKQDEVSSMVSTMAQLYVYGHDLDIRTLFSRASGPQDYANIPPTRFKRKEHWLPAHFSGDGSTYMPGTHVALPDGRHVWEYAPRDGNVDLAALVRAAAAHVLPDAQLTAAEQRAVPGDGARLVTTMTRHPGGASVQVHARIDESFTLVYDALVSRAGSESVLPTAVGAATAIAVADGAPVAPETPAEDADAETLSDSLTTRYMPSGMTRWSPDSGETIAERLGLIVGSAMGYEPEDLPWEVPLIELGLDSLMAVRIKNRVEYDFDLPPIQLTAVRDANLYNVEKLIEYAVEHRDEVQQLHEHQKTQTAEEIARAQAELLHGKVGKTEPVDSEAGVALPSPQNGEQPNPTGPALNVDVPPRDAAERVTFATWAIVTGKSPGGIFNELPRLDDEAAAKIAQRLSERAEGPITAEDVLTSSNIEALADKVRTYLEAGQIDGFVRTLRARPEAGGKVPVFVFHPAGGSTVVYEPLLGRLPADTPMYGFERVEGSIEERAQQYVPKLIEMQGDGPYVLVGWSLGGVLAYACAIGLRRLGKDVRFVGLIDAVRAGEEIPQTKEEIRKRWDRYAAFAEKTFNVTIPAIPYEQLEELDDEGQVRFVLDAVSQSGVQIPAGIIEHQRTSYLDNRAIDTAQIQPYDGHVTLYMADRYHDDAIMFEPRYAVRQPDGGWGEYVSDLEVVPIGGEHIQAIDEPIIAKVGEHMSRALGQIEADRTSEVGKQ
UniProt P9WPC5, whole entry: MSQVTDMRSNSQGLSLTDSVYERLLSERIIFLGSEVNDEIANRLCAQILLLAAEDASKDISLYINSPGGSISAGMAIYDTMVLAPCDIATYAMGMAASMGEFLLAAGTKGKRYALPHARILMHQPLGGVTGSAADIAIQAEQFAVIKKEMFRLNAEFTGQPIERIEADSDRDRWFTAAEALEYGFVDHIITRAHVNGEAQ
UniProt P9WPC3, whole entry partner: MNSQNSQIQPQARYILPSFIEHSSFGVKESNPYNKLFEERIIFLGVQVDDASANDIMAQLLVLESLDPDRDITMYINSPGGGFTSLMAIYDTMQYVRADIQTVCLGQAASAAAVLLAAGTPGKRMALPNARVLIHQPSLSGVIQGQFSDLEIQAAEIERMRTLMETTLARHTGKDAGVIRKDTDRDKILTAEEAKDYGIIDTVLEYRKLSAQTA

A: 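Cell assay of Leishmania donovani living inside macrophages; the read-out is not stated. Concentration: 30 µM. Higher reads as stronger inhibition (inferred: compounds with an IC50 in retests scored well above the rest). Size under these conditions: about 69,000 compounds, about 1,000 of them at 50% or above in at least one test.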
B: 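Polyketide synthase Pks13, Mycobacterium tuberculosis (UniProt I6X8D2). Enzyme assay of the thioesterase domain of polyketide synthase 13; the read-out is not stated. Tested at 30 µM. The record gives no direction; the compounds picked for IC50 retests had high values, so higher reads as stronger inhibition. Size under these conditions: about 67,000 compounds, about 300 of them at 50% or above in at least one test.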
C: 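ClpP1P2, Mycobacterium tuberculosis (UniProt P9WPC5 and UniProt P9WPC3). Protease assay of ClpP1P2, read by the AMC dye that it sets free. Concentration: 50 µM. Higher reads as stronger inhibition, judged from the few compounds that gave an IC50. Most other retested compounds had strongly negative values. Of about 69,000 compounds tested this way, about 10 (0.015%) reached 50% or more in at least one test.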
D: 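Whole-parasite assay of Trypanosoma brucei over 72 hours; the read-out is not stated. Compounds at 30 µM. The record gives no direction; compounds that gave an IC50 in retests scored well above the rest, so higher reads as stronger inhibition. Values scatter widely below zero; nearly all retest evidence comes from the higher of the two concentrations used. Of about 64,000 compounds tested this way, about 940 (1.5%) reached 50% or more in at least one test.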

Values are the deposited “Percent Effect”, in %.
How 0% and 100% were set is not recorded. Most values in the screen are low, and negative values occur.
Compounds were drawn at random from those tested, without regard to their results.
A dash means the value is not listed here; it may have been measured.

| # | SMILES | A | B | C | D |
|---|---|---|---|---|---|
| 1 | `CN(C)c1cncc(C2CCCN2S(=O)(=O)c2cn(C)cn2)n1` (centres undefined) | 2.433 | -10.68 | -18.01 | -2.92 |
| 2 | `Cc1cnn(CCNCc2nc(-c3ccccn3)no2)c1` | 27.5 | -13.81 | 4.22 | -15.62 |
| 3 | `Cc1cnn(CC(C)NCC(=O)NCCOc2ccccc2)c1` (centres undefined) | -0.4676 | 95.17 | 16.24 | -9.504 |
| 4 | `CC(C)NC(=O)CNC(=O)OC(C)(C)C` | 6.741 | - | 3.195 | -23.23 |
| 5 | `Cc1cnn(CC2CCN(CC(O)c3ccccc3F)CC2)c1` (centres undefined) | 1.92 | -6.848 | 1.747 | -56.86 |
| 6 | `COc1cccc2c1OCC(C(=O)N1CCC(N3CCOC3=O)CC1)C2` (centres undefined) | 11.46 | -7.599 | -5.817 | 16.25 |
| 7 | `Nc1nc2c(c(NCc3ccc(C(=O)N4CCCC4)cc3)n1)CCCC2` | 22.72 | -22.16 | -3.573 | -4.072 |
| 8 | `O=S(=O)(CCNCCn1cccn1)c1ccccc1` | -25.12 | 1.813 | -11.15 | -25.23 |
| 9 | `CCN(CC)Cc1ccccc1NCc1c(C)noc1C` | 12.1 | 13.1 | -2.353 | -7.708 |
| 10 | `CC1Oc2ccc(S(=O)(=O)NCCCn3ccnc3)cc2NC1=O` (centres undefined) | -23.01 | -60.45 | -4.131 | 0.9624 |
| 11 | `COc1cccc(C(=O)N2CCN(Cc3nc(C(C)C)no3)CC2)c1` | 24.3 | -8.427 | -12.19 | -6.447 |
| 12 | `Cn1cc(-c2ccnc(NCC3CC3)n2)cn1` | 34.98 | -14.79 | -9.841 | -113.9 |
| 13 | `Cc1ccc2nc(CN3CCCCC3CCn3cccn3)cn2c1` (centres undefined) | -4.731 | -3.576 | -19.09 | -49.6 |
| 14 | `CCOC(=O)CC(C)NC(=O)c1cn(Cc2ccccc2F)nn1` (centres undefined) | 9.731 | -18.66 | 9.871 | -33.59 |
| 15 | `CCN(Cc1ccc2c(c1)OCCO2)C(=O)NCc1nncn1CC` | 15.56 | 1.703 | 10.91 | -3.13 |
| 16 | `CCCS(=O)(=O)N1CCC2(CCCN(Cc3cccc(F)c3F)C2=O)C1` (centres undefined) | 16.48 | 15.05 | -18.19 | 8.113 |
| 17 | `O=C(O)C(F)(F)F.[H][C@@]12CN(Cc3ccoc3)CCO[C@]1([H])CN(S(=O)(=O)N(C)C)C2` | -1.633 | - | - | -41.84 |
| 18 | `[H][C@@]12CN(c3cc(OC)ncn3)C[C@H](C(=O)N3CCCC3)[C@]1([H])CCO2` | 21.03 | - | - | -24.91 |
| 19 | `CC(=O)c1cccc(OCCCC(=O)N(C)Cc2cnc(C)s2)c1` | 20.37 | -33.11 | -6.685 | -40.32 |
| 20 | `CCN1CCN(C(=O)NCc2cccc(-c3cnn(C)c3)c2)CC1` | 36.76 | -22.86 | -11.36 | -10.09 |
| 21 | `Cc1cccc(CN(Cc2ccccn2)S(=O)(=O)N(C)C)c1` | 9.457 | -32.28 | 17.15 | 5.656 |
| 22 | `CC(C)CC(NC(=O)c1cccs1)c1nc2cccnc2n1C` (centres undefined) | -5.236 | 25.31 | -3.939 | 6.7 |
| 23 | `COc1cccc(CN2CC(O)CN(C(=O)C(C)(C)C)CC2=O)c1OC` (centres undefined) | -11.38 | 29.5 | 7.926 | -11.62 |
| 24 | `CCCc1nnc(N2CCC3(CC2)CC(=O)NC(=O)C3)o1` | 27.7 | -11.16 | 4.271 | 40.11 |
| 25 | `Cc1ccc(CNC(=O)CCC(=O)NCCC(C)C)o1` | -12.99 | 15.52 | -9.831 | -19.39 |
| 26 | `CCn1nc2c(cc1=O)CN(Cc1nc(-c3ccoc3)no1)CC2` | -14.57 | 11.16 | -2.096 | -25.76 |
| 27 | `Cc1nn(C)c(N2CCOCC2)c1CNCc1cscn1` | 15.53 | -17.65 | -15.04 | 3.321 |
| 28 | `Cc1ccc(S(N)(=O)=O)cc1C(=O)NC1CCCC1` | 54.24 | -0.5436 | 21.33 | -8.861 |
| 29 | `CCc1nc(CN2CCOC(CN(C)c3cccnn3)C2)cs1` (centres undefined) | 0.9786 | -28.26 | 9.792 | -5.723 |
| 30 | `Cc1ccc(NC2CCN(C(=O)c3ccc(F)c(C)c3)CC2)nn1` | 13.75 | -25.03 | -7.463 | - |
| 31 | `O=C(CNC(=O)C1CC1)NCC(F)(F)F` | 3.458 | -21.24 | 9.716 | -23.22 |
| 32 | `CCc1c(C(=O)N2CCCC(N(C)C)C2)cnn1C(C)(C)C` (centres undefined) | 22.95 | -50.63 | 13.59 | - |
| 33 | `Cc1ccc(S(=O)(=O)N2C[C@H]3C[C@H](NC(=O)c4ccn(C)n4)[C@H]3C2)cc1` | - | -35.58 | -3.953 | - |
| 34 | `O=C(NC1CC(F)(F)C1)[C@]12COC[C@H]1CN(Cc1ccsc1)C2` | - | -16.59 | -3.409 | - |
| 35 | `Cc1ccc(-c2ncc(CNc3cnccc3CO)s2)cc1` | 18.12 | -16.14 | -20.85 | -5.928 |
| 36 | `c1cc(-c2nnc(C3CCCN(CC4CCCCC4)C3)o2)ccn1` (centres undefined) | 16.75 | 17.94 | -5.791 | 17.21 |
| 37 | `Cc1cc(=O)n(C)cc1NC(=O)CC1CCC1` | 16.45 | -27.23 | 0.8156 | -30.24 |
| 38 | `O=C(c1ccsc1)N1CCN(CC(O)c2cccc(F)c2)CC1` (centres undefined) | -43.46 | 4.422 | -0.5052 | - |
| 39 | `Cc1cc(C)n(CCC(=O)N2CCCC(n3cncn3)C2)n1` (centres undefined) | -3.853 | -15.72 | -2.519 | -17.41 |
| 40 | `COc1ccc(OC)c(-c2nc(CN(C)Cc3nncn3C)c(C)o2)c1` | 22.98 | -7.899 | 5.407 | -70.37 |
| 41 | `O=C(CN1CCc2ccccc21)NCc1ccc(Cl)cc1` | 22.6 | -59.48 | 6.274 | -98.94 |
| 42 | `COc1ccc(F)cc1CN1CCCn2nc(CNS(C)(=O)=O)cc2C1` | 20.2 | 8.177 | 0.6415 | -6.682 |
| 43 | `CNS(=O)(=O)CC(=O)N1CCCc2cc(C(C)C)ccc21` | 26.85 | -19.12 | -3.843 | -28.31 |
| 44 | `CNc1cccc(C2CCN(C(C)=O)CC2)n1` | 31.71 | 5.926 | -14.68 | -8.762 |
| 45 | `CCc1c(C)nn(CCNC(=O)C2CCCN(C(=O)N(C)C)C2)c1C` (centres undefined) | 39.92 | -2.767 | -17.56 | 38.87 |
| 46 | `O=C(c1ccc(O)cn1)N1CCOC(c2ccc(Cl)c(Cl)c2)C1` (centres undefined) | 23.32 | 4.427 | -16.99 | 1.888 |
| 47 | `O=C(c1ccc(F)cc1)N1CCC2(CC1)CC(N1CCOCC1)C2` | - | -11.25 | 2.809 | - |
| 48 | `O=C(O)C(F)(F)F.O=C1NCC[C@]12CN(CC1CCOCC1)C[C@H]2c1ccccc1` | 7.927 | - | - | -7.762 |
| 49 | `Cc1nc(CC(=O)N2CCCC(n3ccnc3C(C)C)C2)cs1` (centres undefined) | 46.45 | -0.1266 | 10.16 | 14.57 |
| 50 | `N#Cc1cccc(CN2Cc3nccn3CC(COCC3CC3)C2)c1` (centres undefined) | - | 2.109 | 15.8 | - |
| 51 | `CCNc1ccnc(NCc2cn3nc(C)sc3n2)n1` | -4.579 | -17.25 | -13.66 | -8.701 |
| 52 | `Cc1cc(C[S+]([O-])CC(=O)Nc2c(C)cccc2C)no1` (centres undefined) | -6.48 | -5.997 | 0.7173 | 2.972 |
| 53 | `O=C(Cc1cccc(F)c1F)NC1COc2ccccc2C1=O` (centres undefined) | -90.4 | -10.07 | -5.761 | -49.3 |
| 54 | `O=C(c1cccc2c1OCO2)N1CCCC1c1noc(C2CC2)n1` (centres undefined) | -12.41 | -30.55 | -2.74 | 8.026 |
| 55 | `CCCOC1CCCN(Cc2nc(-c3ccc(F)cc3F)oc2C)C1` (centres undefined) | -16.44 | -30.67 | -9.086 | 19.33 |
| 56 | `CCNC(=O)CCc1c(C)nc2cc(O)nn2c1C` | 37.92 | 12.82 | 9.621 | 30.72 |
| 57 | `Cc1cc(C(=O)N2CCn3cc(CN(C)C)nc3C2)no1` | 18.85 | -13.83 | -6.713 | -376.5 |
| 58 | `Cn1ccc(C(=O)NCc2cccc(CN3CCCC3)c2)cc1=O` | -0.1425 | 56.28 | 3.74 | 0.9464 |
| 59 | `COc1cc(C2CC(=O)Oc3cc(C)[nH]c(=O)c32)ccc1OCC(=O)O` (centres undefined) | -11.2 | -14.1 | -0.9469 | -15.46 |
| 60 | `O=C(NCc1ccccc1)N1CCn2c(Cn3cccn3)cnc2C1` | 18.63 | - | 0.9497 | -19.2 |
| 61 | `CC(=O)N(C)CC(=O)Nc1cc(C(F)(F)F)c[nH]c1=O` | 15.04 | 3.052 | 9.037 | -61.97 |
| 62 | `Cc1cc(C2CCC2)nc(NCC(C)(C)N2CCCC2)n1` | 9.291 | -33.02 | -4.878 | 5.746 |
| 63 | `O=C(Nc1ccc(-c2ccccc2)cn1)C1CCN(C(=O)C2CC2)CC1` | 21.25 | 13.89 | 11.02 | 43.95 |
| 64 | `CCNC(=O)CCC(=O)NC(Cc1ccccc1)c1sccc1C` (centres undefined) | -2.844 | -13.25 | -15.04 | -26.39 |
| 65 | `CCOC[C@@H]1CCC[C@@]12CN(Cc1nccs1)CCO2` | -11.02 | -15.53 | 11.79 | 9.481 |
| 66 | `CCSCc1ccnc(NC(=O)C2CCOC2)c1` (centres undefined) | 23.32 | -26.04 | -4.504 | -10.31 |
| 67 | `CC(CO)(NC(=O)NCc1ccc(Br)s1)C1CC1` (centres undefined) | 12.08 | -2.201 | -2.304 | -19.67 |
| 68 | `CC(=O)N1CCN(Cc2ccco2)CC2(CC(=O)N(C)C2)C1.O=C(O)C(F)(F)F` (centres undefined) | 4.726 | - | - | -65.74 |

7 of the entries, repeated:

SMILES	A	B	C	D
Cc1nc(CC(=O)N2CCCC(n3ccnc3C(C)C)C2)cs1 (centres undefined)	46.45	-0.1266	10.16	14.57
N#Cc1cccc(CN2Cc3nccn3CC(COCC3CC3)C2)c1 (centres undefined)	-	2.109	15.8	-
COc1cccc(CN2CC(O)CN(C(=O)C(C)(C)C)CC2=O)c1OC (centres undefined)	-11.38	29.5	7.926	-11.62
CCOC[C@@H]1CCC[C@@]12CN(Cc1nccs1)CCO2	-11.02	-15.53	11.79	9.481
Cc1nn(C)c(N2CCOCC2)c1CNCc1cscn1	15.53	-17.65	-15.04	3.321
O=C(O)C(F)(F)F.[H][C@@]12CN(Cc3ccoc3)CCO[C@]1([H])CN(S(=O)(=O)N(C)C)C2	-1.633	-	-	-41.84
Cc1ccc2nc(CN3CCCCC3CCn3cccn3)cn2c1 (centres undefined)	-4.731	-3.576	-19.09	-49.6

Source: ChEMBL document CHEMBL3988442, “University of Dundee, Small-Polar-MMV Screening Library” (2021).